# Measured values: patent publication US11319307B2, “2,3-dihydrobenzohurans as bromodomain inhibitors” (GLAXOSMITHKLINE INTELLECTUAL PROPERTY (NO.2) LIMITED, priority 2017, dated 2022)
# Some results were stated once for a whole list of compounds, not compound by compound.
# Target: T1, BRD4 BD2 (Homo sapiens, UniProt O60885, Y97A)
# T1 construct: BRD4 (1-477) (Y97A) and (Y390A); made in house; host or cells: E. coli (pET15b vector)
# Experiment: BRD4 BD2 TR-FRET competition assay
# Type: binding
structure (smiles),measurement,setting,value
"CNC(=O)c1cc(C(=O)NCCC[C@H]2OC[C@H](N)CO2)cc2c1OC[C@@]2(C)c1ccccc1 (single isomer, unassigned) [Example 11, (S*)—N^5-(3-((2r,5S)-5-amino-1,3-dioxan-2-yl)propyl)-N^7,3-dimethyl-3-phenyl-2,3-dihydrobenzofuran-5,7-dicarboxamide]",selectivity for BRD4 BD2 over BRD4 BD1,"BRD4 BD2 pIC50 − BRD4 BD1 pIC50, in at least one of the TR-FRET assays",≥ 3 log unit
same,fold selective for BRD4 BD2 over BRD4 BD1,restated from log unit selectivity,at least 1000 fold
